In PMC7438112:
No constants are given. Whether binding was seen depends on the method and setting. Binding seen in cells or lysates may run through a third protein. These calls come from enrichment with a bait or labelling near it, and not all partners need be listed.

Sequences of proteins named here, by UniProt entry; tags and fusion partners are left off.
UniProt Q14839: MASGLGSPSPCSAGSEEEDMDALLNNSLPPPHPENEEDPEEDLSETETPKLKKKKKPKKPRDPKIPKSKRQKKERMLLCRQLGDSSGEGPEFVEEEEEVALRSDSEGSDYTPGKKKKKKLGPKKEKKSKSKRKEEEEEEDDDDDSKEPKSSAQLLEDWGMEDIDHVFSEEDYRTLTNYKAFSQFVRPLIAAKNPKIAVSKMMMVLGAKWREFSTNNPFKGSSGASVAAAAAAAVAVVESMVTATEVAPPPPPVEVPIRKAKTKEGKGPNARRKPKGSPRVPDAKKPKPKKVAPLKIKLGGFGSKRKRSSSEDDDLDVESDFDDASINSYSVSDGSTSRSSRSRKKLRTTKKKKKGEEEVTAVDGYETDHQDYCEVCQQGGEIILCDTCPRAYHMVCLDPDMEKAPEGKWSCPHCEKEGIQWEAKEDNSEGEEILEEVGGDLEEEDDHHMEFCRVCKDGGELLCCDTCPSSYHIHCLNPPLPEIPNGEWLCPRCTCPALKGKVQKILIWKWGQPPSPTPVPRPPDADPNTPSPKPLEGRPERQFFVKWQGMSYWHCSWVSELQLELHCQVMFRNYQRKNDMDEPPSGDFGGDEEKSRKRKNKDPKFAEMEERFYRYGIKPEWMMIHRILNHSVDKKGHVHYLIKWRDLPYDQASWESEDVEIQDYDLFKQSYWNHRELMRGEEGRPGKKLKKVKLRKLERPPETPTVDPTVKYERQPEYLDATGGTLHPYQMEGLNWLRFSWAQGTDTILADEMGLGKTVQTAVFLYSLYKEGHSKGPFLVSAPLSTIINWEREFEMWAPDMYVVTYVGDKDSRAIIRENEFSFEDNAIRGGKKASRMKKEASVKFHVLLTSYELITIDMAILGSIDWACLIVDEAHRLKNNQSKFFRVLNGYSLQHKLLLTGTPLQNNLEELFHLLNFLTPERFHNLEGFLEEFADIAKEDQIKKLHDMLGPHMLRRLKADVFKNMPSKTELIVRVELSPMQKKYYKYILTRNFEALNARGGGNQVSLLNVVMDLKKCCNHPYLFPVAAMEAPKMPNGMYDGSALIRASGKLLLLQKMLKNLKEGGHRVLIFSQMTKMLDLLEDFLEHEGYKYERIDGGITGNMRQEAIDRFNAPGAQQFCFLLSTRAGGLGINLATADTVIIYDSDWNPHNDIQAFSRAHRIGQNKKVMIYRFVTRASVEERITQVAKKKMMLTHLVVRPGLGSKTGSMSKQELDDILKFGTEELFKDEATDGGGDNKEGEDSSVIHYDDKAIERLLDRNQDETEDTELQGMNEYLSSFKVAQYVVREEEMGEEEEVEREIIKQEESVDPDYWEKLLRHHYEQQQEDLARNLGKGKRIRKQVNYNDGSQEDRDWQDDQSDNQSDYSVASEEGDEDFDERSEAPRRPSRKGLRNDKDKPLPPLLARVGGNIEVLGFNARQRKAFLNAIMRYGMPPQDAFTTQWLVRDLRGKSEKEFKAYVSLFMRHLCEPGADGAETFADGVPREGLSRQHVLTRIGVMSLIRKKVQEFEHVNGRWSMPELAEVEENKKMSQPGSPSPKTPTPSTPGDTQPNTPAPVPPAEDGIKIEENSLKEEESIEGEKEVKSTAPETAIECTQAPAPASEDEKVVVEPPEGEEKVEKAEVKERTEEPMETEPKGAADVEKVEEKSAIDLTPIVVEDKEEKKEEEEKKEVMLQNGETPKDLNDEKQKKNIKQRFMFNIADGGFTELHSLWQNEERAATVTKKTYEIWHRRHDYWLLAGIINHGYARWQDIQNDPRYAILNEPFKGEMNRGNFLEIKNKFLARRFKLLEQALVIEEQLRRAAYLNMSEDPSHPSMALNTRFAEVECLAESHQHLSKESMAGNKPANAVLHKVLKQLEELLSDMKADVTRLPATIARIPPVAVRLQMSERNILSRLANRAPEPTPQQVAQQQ
UniProt P25440: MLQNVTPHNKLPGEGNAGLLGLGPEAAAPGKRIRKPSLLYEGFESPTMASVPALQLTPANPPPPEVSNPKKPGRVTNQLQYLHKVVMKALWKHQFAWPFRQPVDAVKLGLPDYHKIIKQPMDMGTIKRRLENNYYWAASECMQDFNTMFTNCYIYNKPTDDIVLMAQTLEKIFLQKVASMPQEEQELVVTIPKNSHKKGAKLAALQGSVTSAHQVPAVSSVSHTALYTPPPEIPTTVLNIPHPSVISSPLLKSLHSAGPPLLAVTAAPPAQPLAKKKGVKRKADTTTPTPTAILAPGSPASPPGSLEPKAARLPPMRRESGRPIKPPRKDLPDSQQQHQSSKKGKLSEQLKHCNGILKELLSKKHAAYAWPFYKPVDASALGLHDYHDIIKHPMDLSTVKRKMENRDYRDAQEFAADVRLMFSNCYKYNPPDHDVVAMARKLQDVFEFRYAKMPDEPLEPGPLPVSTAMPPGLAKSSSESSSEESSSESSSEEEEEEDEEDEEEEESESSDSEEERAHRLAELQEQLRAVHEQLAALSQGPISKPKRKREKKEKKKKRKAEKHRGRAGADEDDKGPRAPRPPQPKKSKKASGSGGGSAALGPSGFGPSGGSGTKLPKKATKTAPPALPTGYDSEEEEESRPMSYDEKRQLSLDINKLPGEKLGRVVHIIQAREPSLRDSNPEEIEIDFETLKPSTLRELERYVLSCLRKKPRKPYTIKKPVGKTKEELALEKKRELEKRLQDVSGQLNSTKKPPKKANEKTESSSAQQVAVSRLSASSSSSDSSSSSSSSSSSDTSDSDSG
UniProt Q9H9B1: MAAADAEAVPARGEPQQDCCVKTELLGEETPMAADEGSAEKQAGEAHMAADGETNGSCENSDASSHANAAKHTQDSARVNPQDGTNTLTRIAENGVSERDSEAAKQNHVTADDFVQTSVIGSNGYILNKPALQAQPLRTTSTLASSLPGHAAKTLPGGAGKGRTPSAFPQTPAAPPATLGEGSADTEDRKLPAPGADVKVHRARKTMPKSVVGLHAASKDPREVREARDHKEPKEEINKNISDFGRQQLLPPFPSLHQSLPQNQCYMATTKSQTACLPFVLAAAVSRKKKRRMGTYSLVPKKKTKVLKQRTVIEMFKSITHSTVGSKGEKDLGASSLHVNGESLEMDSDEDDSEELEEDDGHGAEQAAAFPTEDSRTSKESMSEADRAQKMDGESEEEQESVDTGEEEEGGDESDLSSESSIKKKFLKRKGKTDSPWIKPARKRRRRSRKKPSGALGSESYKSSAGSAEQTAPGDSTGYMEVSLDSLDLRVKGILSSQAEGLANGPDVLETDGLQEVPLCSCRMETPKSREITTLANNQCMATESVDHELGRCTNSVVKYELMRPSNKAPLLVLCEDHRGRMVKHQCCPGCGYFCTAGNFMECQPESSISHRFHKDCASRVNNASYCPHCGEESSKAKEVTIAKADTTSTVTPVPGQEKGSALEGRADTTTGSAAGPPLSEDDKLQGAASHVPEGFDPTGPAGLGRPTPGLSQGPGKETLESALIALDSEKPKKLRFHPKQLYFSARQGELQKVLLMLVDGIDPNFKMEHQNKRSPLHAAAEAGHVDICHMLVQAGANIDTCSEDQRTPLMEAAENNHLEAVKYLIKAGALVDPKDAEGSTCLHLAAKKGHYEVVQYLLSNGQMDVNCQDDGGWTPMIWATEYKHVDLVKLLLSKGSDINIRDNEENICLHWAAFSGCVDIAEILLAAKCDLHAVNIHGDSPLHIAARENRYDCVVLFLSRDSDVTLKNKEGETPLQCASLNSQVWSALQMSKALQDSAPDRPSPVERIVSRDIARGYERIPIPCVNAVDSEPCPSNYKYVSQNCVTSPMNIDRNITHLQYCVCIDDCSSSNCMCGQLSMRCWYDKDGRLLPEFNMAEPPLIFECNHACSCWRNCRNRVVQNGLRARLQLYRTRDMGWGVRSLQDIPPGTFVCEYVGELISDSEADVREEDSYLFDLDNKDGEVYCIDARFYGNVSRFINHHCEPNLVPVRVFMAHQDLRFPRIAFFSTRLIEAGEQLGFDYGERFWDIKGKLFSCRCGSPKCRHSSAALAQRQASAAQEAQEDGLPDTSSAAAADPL
UniProt Q96KQ7: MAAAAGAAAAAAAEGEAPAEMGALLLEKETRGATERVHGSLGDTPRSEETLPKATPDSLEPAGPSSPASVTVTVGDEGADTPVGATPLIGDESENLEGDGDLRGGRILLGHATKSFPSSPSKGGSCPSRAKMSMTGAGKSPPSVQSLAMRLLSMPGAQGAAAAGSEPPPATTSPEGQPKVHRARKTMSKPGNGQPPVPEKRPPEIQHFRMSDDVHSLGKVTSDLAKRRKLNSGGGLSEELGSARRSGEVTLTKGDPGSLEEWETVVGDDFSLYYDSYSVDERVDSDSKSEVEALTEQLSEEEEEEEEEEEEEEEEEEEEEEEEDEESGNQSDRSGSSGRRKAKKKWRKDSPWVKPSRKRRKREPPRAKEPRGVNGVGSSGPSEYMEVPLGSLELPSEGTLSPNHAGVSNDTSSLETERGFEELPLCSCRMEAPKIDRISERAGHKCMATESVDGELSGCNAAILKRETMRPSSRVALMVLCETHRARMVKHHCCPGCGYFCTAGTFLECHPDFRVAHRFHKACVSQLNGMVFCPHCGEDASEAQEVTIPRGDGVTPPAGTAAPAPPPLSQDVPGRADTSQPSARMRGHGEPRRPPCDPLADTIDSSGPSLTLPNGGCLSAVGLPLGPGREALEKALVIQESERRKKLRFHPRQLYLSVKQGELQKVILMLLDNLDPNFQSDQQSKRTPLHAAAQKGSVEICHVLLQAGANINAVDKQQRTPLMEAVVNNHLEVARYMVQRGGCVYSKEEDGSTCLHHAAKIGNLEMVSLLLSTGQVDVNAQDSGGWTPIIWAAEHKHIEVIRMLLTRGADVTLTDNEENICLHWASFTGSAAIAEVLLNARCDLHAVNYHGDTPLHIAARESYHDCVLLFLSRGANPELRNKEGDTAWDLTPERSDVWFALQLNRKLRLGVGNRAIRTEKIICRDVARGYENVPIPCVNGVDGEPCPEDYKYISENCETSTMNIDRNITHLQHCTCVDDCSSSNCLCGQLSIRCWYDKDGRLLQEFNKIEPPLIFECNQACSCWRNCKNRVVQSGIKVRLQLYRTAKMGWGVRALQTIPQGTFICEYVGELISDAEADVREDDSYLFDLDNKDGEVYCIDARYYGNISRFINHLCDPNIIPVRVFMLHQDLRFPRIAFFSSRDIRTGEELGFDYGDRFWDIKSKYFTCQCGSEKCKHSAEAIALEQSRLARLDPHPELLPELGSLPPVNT

Target: endogenous CHD4 (chromodomain-helicase-DNA-binding protein 4) with a 3xFlag tag knocked in (human (endogenous in RH4)) (UniProt Q14839)
Experiment: affinity purification with mass spectrometry; anti-Flag (M2) on Protein G Dynabeads, overnight with nuclear extracts of RH4 N-CHD4 and C-CHD4 knock-in lines (lysis buffer 50 mM HEPES pH 7.8, 3 mM MgCl2, 300 mM NaCl, with benzonase, 4°C); eluted with 3xFlag peptide; LC-MS; scored with SAINTexpress against RH4 wildtype and CRAPome controls (fold change at least 2, SAINT score above 0.6)

Substance	binding
BRD2 (from UniProt P25440 1-801)	binds
EHMT1 (from UniProt Q9H9B1 1-1298)	binds
EHMT2 (from UniProt Q96KQ7 1-1210)	binds
KMT2A (from UniProt Q03164 1-3969)	binds
